From publication doi:10.1101/2022.07.24.501280
Residue numbers refer to the chain shown, from its start. No constants are given. Whether binding was seen depends on the method and setting. Binding seen in cells or lysates may run through a third protein. Some binding calls cover weakened binding; strength is not graded here. For part of these data: Tags and fused reporters may be left off the sequences shown. Values belong to the molecule of their own block, whether it stands above or below them.

Sequences of proteins named here, by UniProt entry; tags and fusion partners are left off. A change or cut given only in a name is not applied to a line headed by its entry.
UniProt P05198, whole entry: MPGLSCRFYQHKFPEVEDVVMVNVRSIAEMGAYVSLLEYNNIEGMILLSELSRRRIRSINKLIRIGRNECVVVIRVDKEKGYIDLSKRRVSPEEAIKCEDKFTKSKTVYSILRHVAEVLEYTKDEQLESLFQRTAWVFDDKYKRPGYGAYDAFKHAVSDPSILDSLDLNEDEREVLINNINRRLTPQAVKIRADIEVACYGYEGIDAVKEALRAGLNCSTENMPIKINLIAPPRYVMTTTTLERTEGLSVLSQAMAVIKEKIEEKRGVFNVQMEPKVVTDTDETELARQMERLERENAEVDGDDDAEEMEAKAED

What was measured:
Assay in all cases: co-IP
[1] = molecular target: T1, HA tagged wild type PERK (PKR-like Endoplasmic Reticulum Kinase) (UniProt Q9Z2B5)
T1 sequence: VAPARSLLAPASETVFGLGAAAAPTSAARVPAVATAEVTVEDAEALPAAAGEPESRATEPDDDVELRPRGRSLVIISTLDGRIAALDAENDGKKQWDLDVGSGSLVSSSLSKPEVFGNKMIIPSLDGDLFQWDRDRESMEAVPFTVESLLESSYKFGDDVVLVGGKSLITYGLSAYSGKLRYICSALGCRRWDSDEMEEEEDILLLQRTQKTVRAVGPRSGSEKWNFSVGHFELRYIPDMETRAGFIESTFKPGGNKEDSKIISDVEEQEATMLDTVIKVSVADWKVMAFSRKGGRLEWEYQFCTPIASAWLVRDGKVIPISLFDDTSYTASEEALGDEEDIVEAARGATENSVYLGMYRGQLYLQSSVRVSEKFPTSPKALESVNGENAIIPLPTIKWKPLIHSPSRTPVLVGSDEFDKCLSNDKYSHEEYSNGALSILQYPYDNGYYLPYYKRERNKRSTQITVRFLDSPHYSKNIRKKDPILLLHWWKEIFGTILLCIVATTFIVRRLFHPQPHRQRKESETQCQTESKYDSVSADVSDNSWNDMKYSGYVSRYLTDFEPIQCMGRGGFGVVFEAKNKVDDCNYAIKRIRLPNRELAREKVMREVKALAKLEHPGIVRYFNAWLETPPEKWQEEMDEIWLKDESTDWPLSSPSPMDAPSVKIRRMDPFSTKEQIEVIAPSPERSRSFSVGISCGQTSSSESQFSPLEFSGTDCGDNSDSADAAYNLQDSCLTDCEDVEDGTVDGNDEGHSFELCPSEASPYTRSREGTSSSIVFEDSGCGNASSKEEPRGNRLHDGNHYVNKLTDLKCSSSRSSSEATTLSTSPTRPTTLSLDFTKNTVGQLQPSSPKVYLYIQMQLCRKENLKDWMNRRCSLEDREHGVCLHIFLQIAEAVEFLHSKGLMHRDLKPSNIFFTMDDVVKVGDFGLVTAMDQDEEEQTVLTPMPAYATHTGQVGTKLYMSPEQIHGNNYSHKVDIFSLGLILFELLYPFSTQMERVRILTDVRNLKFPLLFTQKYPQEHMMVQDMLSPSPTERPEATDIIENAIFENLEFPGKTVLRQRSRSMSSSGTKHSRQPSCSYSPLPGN

[2] = molecular target: T2, HA tagged PERK K618A kinase-dead mutant (UniProt Q9Z2B5)
T2 sequence: T1 sequence with K590A

[3] = molecular target: T3, PERK (in the immunoprecipitation of Figure 2d) (UniProt Q9Z2B5)
T3 sequence: T1 sequence

- binding [1]: binds
- binding [2]: no binding
Molecule: eIF2α (in HEK 293 cells) (from UniProt P05198 1-315)

- binding [3]: no binding
B1: ATAD3A Δ1-240 (domain or fragment, UniProt Q9NVI7 241-586)
chain: VTDWDKVTATVAGLTLLAVGVYSAKNATLVAGRFIEARLGKPSLVRETSRITVLEALRHPIQVSRRLLSRPQDALEGVVLSPSLEARVRDIAIATRNTKKNRSLYRNILMYGPPGTGKTLFAKKLALHSGMDYAIMTGGDVAPMGREGVTAMHKLFDWANTSRRGLLLFVDEADAFLRKRATEKISEDLRATLNAFLYRTGQHSNKFMLVLASNQPEQFDWAINDRINEMVHFDLPGQEERERLVRMYFDKYVLKPATEGKQRLKLAQFDYGRKCSEVARLTEGMSGREIAQLAVSWQATAYASEDGVLTEAMMDTRVQDAVQQHQQKMCWLKAEGPGRGDEPSPS
